Assay in all cases: 2-aminopurine fluorescence (base flipping)
The target in one data set is T1, Prim-PolC WT (UniProt A0R5T1).
T1 sequence (looked up, limits assumed): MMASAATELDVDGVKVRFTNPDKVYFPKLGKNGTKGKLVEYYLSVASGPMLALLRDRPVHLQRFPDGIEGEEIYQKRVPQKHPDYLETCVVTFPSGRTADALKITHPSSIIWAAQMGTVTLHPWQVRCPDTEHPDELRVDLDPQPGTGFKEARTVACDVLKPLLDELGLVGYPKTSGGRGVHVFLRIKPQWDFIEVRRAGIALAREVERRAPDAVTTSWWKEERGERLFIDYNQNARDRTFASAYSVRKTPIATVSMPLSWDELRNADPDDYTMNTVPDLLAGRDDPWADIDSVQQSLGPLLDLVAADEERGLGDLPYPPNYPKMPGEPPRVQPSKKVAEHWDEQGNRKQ
The following applies: 5 mM Ca2+, 250 uM ATP, 2-aminopurine at position 15 of primer oKZ282 (written A), 5'-phosphate on downstream strand, Crystals: 0.05 M Na cacodylate pH 6.5, 2 M ammonium sulfate, 0.01 M MnCl2, 285 K, 300 uM protein:600 uM DNA, 2-AP assay: 0-1 uM protein, 1 uM DNA, recombinant protein, protein details: N-terminal His, label: 2-AP.

The next data set deals with T2, Prim-PolC K324A (UniProt A0R5T1).
T2 sequence (looked up, limits assumed): T1 sequence (looked up, limits assumed) with K324A
The note with it: 5 mM Ca2+, 250 uM ATP, 2-aminopurine at position 15 of primer oKZ282 (written A), 5'-phosphate on downstream strand, Crystals: 0.05 M Na cacodylate pH 6.5, 2 M ammonium sulfate, 0.01 M MnCl2, 285 K, 300 uM protein:600 uM DNA, 2-AP assay: 0-1 uM protein, 1 uM DNA, recombinant protein, protein details: N-terminal His, label: 2-AP.

The target of a further data set is T3, Prim-PolC N321A (UniProt A0R5T1).
T3 sequence (looked up, limits assumed): T1 sequence (looked up, limits assumed) with N321A
The note with it: 5 mM Ca2+, 250 uM ATP, reduced signal, 2-aminopurine at position 15 of primer oKZ282 (written A), 5'-phosphate on downstream strand, Crystals: 0.05 M Na cacodylate pH 6.5, 2 M ammonium sulfate, 0.01 M MnCl2, 285 K, 300 uM protein:600 uM DNA, 2-AP assay: 0-1 uM protein, 1 uM DNA, recombinant protein, protein details: N-terminal His, label: 2-AP.

Changes are numbered by the printed parent chain. The exact form of at least one protein or probe is not confirmed. Weaker means in comparison with the reference protein, sequence or condition of that experiment. Tags and fusion partners may be left off the protein sequences shown.

The source of these data is publication PMC7442782, “Molecular basis for DNA repair synthesis on short gaps by mycobacterial Primase-Polymerase C” (Nature Communications, 2020).

As to “AGTCGCATAGTGTAGTCATGTCGATTCGCCATAG / CTATGAGCGAATCGAC / TACACTATGCGACT [2-AP 5-nt gap substrate]”, in the data set with Prim-PolC WT, the binding result is given as “binds more weakly”.

On to “AGTCGCATAGTGTAGTCATGTCGATTCGCCATAG / CTATGAGCGAATCGAC / ACTACACTATGCGACT [2-AP 3-nt gap substrate]”, for which the binding result in the data set with Prim-PolC K324A (very modest increase), in the data set with Prim-PolC N321A and in the data set with Prim-PolC WT was “binds more weakly” throughout.

Regarding “AGTCGCATAGTGTAGTCATGTCGATTCGCCATAG / CTATGAGCGAATCGAC / CGACTACACTATGCGACT [2-AP 1-nt gap substrate]”, in the data set with Prim-PolC K324A (slightly reduced signal), the binding result is given as “binds more weakly”.
